According to US7811551B2 (GE Healthcare AS, priority 2003, dated 2010):

Experiment: general procedure: Fmoc solid-phase peptide synthesis; Rink Amide AM resin; HBTU
Settings: whole synthesis, scale 0.05 mmol

Substance: Cl—CH2CO-Lys-cyclo[Cys(CH2)-Arg-Gly-Asp-Cys]-Phe-Cys-NH2
- crude mass: 27 mg
